These are yes or no findings as the source states them, for the method shown. Binding seen in cells or lysates may run through a third protein. Some binding calls cover weakened binding; strength is not graded here. One block for each molecule: values may come before it.
Target: gp96 (UniProt P08113)
Test: co-IP; anti-gp96 precipitates from whole cell lysate resolved by SDS PAGE, GANAB, CAPZB and gp96 immunoblotted; IgG isotype control

binding: binds
Molecule: CAPZB (from UniProt P47757 1-277)

binding: binds
B1: GANAB (protein, UniProt Q8BHN3 33-944)
chain: VDRSNFKTCDESSFCKRQRSIRPGLSPYRALLDTLQLGPDALTVHLIHEVTKVLLVLELQGLQKNMTRIRIDELEPRRPRYRVPDVLVADPPTARLSVSGRDDNSVELTVAEGPYKIILTAQPFRLDLLEDRSLLLSVNARGLMAFEHQRAPRVPQESKDPAEGNGAQPEATPGDGDKPEETQEKAEKDEPGAWEETFKTHSDSKPYGPTSVGLDFSLPGMEHVYGIPEHADSLRLKVTEGGEPYRLYNLDVFQYELNNPMALYGSVPVLLAHSFHRDLGIFWLNAAETWVDISSNTAGKTLFGKMLDYLQGSGETPQTDIRWMSESGIIDVFLMLGPSVFDVFRQYASLTGTQALPPLFSLGYHQSRWNYRDEADVLEVDQGFDDHNMPCDVIWLDIEHADGKRYFTWDPTRFPQPLNMLEHLASKRRKLVAIVDPHIKVDSGYRVHEELRNHGLYVKTRDGSDYEGWCWPGSASYPDFTNPRMRAWWSNMFSFDNYEGSAPNLYVWNDMNEPSVFNGPEVTMLKDAVHYGGWEHRDIHNIYGLYVHMATADGLIQRSGGIERPFVLSRAFFSGSQRFGAVWTGDNTAEWDHLKISIPMCLSLALVGLSFCGADVGGFFKNPEPELLVRWYQMGAYQPFFRAHAHLDTGRREPWLLASQYQDAIRDALFQRYSLLPFWYTLFYQAHKEGFPVMRPLWVQYPEDMSTFSIEDQFMLGDALLIHPVSDAGAHGVQVYLPGQEEVWYDIQSYQKHHGPQTLYLPVTLSSIPVFQRGGTIVPRWMRVRRSSDCMKDDPITLFVALSPQGTAQGELFLDDGHTFNYQTRHEFLLRRFSFSGSTLVSSSADPKGHLETPIWIERVVIMGAGKPAAVVLQTKGSPESRLSFQHDPETSVLILRKPGVSVASDWSIHLR
